The text below walks through data of US20230255927A1 (ELANCO TIERGESUNDHEIT AG, priority 2022, published 2023).

Holding throughout (assay type): in vivo
One data set relates to lactating Holstein cows. Nature of the data set: Wisconsin Study: dietary monensin fed to lactating cows for 9 weeks. On the procedure:
Methods: […] All cows received 11 g/ton Rumensin for a 5-week covariate period after which pens received 1 of 4 dietary treatments (n=3) formulated to provide 0 g/ton (Control, “CON”), 11 g/ton (R11), 14.5 g/ton (R14.5), or 18 g/ton (R18) of Rumensin for 9 weeks. Basal diet was 54% forage and 27% Neutral Detergent Fiber (NDF), 29% starch, and 2.3% Rumen Unsaturated Fatty Acid Load (RUFAL). The pen was the experimental unit, and data were analyzed using the Fit Model Procedure of JMP with treatment as a fixed effect and pen as a random effect. LS-means were determined and contrasts of CON vs. R11, CON vs. R14.5, CON vs. R18, and linear and quadratic effects were tested.

Another data set deals with lactating dairy cows. Nature of the data set: New York/Cornell Study: dietary monensin fed to lactating dairy cows. The text has this: Lactating dairy cows were used for the instant example. Methods: One-hundred ninety-two lactating cows (120±50 DIM) were randomly assigned to 12 pens each including 16 cows.
The subject of the next data set is lactating dairy cattle. Nature of the data set: Combined analysis of Wisconsin and New York Studies. To be noted: final week. On the procedure:
The instant example provides the combined analysis of data from the two studies (Wisconsin Study and New York Study). The two studies were combined statistically to explore effects on milk production efficiency and other variables associated with efficiency. By effectively doubling pen numbers an increase in power of the analysis was provided. Analysis of these combined datasets was performed in various ways, with the inclusion of either weekly milk yield averages or sample day milk yields to calculate milk component yields, component corrected yields, and feed efficiency. Further, the combined dataset was analyzed using data collected from all experimental weeks as well as the exclusion of data from the first three weeks of experimental treatment feeding. This was done to exclude any shifts in response variables while the rumen environment was adapting to the treatment provided. Materials & Methods: All data from both experimental locations were combined and statistically analyzed as a longitudinal experiment design through SAS version 9.4 (SAS Institute Inc., Cary, N.C.). Experimental response variables, excluding body condition score (BCS), were analyzed using PROC MIXED and […] statements to compare treatment means using the following model: γijklm=μ+[…] Where γijklm=an individual observation of the response variable analyzed, Ti=the i^th dietary treatment, Wj=the j^th experimental week, TWij=the interaction of the i^th treatment with the j^th experimental week, Lk=the k^th experimental location, Pl(i*k)=the 1th pen within the i^th treatment and k^th experimental location, WPjl(i*k)=the interaction of the j^th experimental week with the 1th pen within the i^th treatment and k^th experimental location, Cm(l*i*k)=the m^th cow within the 1th pen, the i^th treatment and k^th experimental location, BXmlik=the covariate observation obtained after three weeks of feeding a common diet to all treatment groups, and ∈ijklmn=the random error of the m^th cow within the 1th pen, the i^th treatment and the k^th location. […]

On to `CC[C@@]1([C@@H]2O[C@@H]([C@H]3O[C@@](O)(CO)[C@H](C)C[C@@H]3C)C[C@@H]2C)CC[C@H]([C@]2(C)CC[C@]3(C[C@H](O)[C@@H](C)[C@@H]([C@@H](C)[C@@H](OC)[C@H](C)C(=O)O)O3)O2)O1` [monensin], for which the “Weight Gain” value with lactating Holstein cows (R11, 11 g/ton) is on record as 0.90 lb/d; with lactating Holstein cows (R14.5, 14.5 g/ton), 0.98 lb/d; with lactating Holstein cows (R18, 18 g/ton), 1.17 lb/d; in the data set with lactating dairy cows (R11, 11 g/ton) it was 0.60 lb/d; in the data set on lactating dairy cows (R14.5, 14.5 g/ton) it was 0.35 lb/d; in the data set with lactating dairy cows (R18, 18 g/ton), 0.97 lb/d. Further, the “Final BCS” value with lactating dairy cattle (11 g/ton) amounted to 2.93; with lactating dairy cattle (14.5 g/ton), 2.96; in the data set on lactating dairy cattle (18 g/ton) it was 2.87.
